According to the supplement of paper PMC10849652:
The list shows a part of the results.

Chains of the proteins cited; added tags and fusions are not shown. Lines headed by an entry give the natural chain unless they say otherwise; changes in a name come on top.
UniProt Q8N344: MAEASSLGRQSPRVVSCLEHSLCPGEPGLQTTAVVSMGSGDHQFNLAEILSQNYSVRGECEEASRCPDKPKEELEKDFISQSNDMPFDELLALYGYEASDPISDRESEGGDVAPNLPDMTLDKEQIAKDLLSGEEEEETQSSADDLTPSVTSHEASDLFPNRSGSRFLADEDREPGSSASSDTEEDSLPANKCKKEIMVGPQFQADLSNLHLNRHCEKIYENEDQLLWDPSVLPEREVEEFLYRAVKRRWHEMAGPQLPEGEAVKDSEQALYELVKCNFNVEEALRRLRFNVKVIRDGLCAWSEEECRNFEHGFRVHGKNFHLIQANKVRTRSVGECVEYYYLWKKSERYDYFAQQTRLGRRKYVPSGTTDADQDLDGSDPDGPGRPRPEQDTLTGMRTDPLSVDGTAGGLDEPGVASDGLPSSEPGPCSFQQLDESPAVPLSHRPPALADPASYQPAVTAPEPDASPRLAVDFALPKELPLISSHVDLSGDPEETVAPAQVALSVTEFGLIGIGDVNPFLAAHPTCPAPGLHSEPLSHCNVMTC
UniProt Q8N4V1: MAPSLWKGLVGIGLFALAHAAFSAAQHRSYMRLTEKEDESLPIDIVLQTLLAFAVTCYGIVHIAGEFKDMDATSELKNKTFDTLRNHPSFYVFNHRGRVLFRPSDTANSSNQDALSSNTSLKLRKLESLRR
UniProt O00566: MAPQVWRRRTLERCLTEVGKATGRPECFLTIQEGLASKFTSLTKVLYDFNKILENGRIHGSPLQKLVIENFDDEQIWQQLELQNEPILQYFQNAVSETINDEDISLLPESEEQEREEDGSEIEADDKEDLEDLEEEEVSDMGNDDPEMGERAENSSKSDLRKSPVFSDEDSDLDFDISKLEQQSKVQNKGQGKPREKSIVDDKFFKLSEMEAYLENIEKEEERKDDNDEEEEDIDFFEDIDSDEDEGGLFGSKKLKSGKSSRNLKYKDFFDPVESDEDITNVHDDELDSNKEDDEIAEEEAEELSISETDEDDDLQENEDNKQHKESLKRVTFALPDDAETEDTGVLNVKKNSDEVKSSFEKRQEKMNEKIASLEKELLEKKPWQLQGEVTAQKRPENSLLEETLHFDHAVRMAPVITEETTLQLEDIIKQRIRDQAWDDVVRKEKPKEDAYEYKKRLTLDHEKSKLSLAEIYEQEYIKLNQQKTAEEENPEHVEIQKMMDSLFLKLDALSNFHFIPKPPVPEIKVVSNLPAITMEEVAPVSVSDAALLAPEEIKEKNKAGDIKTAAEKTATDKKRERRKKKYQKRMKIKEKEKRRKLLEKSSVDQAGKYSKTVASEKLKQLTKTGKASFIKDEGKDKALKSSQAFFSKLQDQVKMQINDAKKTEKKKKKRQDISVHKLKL
UniProt Q5JXC2: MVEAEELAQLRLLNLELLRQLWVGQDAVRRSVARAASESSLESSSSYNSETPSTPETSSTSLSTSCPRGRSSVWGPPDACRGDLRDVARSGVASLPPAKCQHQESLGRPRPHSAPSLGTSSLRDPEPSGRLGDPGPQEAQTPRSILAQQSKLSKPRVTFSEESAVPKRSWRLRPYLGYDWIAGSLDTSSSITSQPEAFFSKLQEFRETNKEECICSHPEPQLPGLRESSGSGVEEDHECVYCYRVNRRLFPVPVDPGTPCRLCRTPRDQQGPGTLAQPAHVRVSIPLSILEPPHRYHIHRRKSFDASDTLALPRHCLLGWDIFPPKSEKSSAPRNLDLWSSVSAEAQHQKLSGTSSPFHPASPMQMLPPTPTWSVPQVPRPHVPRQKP
UniProt Q95460, whole entry, looked up: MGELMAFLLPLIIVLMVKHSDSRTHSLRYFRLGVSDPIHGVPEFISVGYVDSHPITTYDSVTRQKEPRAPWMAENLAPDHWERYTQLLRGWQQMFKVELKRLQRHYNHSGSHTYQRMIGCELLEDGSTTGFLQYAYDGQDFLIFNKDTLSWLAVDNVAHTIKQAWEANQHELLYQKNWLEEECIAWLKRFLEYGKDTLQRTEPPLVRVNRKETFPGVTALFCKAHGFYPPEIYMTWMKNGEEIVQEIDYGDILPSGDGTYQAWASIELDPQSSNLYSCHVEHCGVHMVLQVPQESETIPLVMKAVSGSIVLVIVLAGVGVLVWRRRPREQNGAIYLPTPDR
UniProt O96033: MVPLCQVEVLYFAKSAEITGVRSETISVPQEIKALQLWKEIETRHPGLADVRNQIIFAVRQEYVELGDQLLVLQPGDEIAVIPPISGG
UniProt Q96EN8: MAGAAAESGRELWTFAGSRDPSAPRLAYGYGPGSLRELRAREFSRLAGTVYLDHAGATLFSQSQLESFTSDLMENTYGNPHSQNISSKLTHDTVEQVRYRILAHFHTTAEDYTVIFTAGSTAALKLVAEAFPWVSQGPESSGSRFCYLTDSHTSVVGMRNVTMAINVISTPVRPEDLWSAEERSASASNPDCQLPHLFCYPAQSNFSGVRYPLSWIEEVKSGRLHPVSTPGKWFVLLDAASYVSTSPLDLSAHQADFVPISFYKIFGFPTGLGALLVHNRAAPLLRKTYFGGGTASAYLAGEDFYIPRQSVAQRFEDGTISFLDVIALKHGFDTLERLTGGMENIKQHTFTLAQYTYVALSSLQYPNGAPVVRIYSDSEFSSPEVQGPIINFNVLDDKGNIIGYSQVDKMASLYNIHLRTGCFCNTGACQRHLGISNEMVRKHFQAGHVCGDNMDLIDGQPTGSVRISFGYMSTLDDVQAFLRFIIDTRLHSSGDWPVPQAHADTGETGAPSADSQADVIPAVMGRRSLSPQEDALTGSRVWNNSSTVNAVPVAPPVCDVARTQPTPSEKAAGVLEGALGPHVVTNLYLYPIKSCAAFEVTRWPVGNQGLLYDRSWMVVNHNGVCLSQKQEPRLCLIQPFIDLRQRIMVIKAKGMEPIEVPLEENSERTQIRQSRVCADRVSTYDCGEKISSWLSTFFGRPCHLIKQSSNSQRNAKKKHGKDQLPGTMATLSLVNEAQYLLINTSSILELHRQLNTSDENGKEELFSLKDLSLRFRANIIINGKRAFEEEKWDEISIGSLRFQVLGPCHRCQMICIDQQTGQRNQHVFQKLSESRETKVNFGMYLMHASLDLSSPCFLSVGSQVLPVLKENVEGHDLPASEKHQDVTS
UniProt Q8NB16: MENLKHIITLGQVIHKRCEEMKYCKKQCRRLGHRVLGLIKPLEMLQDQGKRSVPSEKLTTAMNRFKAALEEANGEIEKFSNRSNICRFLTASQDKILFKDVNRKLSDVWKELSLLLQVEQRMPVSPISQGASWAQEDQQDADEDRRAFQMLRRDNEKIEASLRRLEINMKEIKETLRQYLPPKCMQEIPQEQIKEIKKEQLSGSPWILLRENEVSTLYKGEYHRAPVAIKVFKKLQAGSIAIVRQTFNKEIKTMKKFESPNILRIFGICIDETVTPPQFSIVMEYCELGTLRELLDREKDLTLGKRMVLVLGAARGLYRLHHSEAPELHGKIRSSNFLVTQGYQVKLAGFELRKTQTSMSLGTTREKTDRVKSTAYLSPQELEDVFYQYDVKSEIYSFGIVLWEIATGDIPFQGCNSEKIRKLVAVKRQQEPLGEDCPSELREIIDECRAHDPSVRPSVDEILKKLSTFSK
UniProt Q9H8S9: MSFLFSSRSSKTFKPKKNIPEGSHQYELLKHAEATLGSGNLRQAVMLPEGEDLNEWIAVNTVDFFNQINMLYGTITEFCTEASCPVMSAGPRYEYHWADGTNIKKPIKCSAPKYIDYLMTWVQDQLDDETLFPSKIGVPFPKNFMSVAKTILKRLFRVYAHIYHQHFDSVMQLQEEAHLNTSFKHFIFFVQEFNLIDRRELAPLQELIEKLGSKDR
UniProt Q8TAP9: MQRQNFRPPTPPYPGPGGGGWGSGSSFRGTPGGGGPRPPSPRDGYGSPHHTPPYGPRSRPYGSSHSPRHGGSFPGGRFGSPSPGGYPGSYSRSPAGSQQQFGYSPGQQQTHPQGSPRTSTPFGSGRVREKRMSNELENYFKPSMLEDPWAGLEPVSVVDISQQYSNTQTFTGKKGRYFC
UniProt Q9HBH9: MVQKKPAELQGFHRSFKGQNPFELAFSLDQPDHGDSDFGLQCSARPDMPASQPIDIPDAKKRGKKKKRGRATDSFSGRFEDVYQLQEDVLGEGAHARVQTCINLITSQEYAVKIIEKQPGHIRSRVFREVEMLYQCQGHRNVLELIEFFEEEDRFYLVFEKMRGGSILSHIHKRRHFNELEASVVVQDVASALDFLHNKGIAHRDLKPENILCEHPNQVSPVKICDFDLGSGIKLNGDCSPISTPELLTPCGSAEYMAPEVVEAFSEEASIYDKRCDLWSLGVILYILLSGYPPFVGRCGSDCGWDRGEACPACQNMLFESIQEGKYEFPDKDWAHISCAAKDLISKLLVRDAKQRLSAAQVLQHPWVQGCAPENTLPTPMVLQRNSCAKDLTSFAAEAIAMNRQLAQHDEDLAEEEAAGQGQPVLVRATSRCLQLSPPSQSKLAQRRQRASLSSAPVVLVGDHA
UniProt Q14165: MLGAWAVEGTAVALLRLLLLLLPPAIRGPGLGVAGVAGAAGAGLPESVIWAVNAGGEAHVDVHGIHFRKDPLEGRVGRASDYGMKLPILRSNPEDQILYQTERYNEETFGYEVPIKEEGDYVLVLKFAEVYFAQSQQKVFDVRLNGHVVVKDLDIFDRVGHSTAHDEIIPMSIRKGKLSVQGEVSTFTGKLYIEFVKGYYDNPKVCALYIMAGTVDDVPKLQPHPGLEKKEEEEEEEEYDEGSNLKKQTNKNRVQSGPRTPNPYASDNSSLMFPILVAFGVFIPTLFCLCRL
UniProt Q8IY33: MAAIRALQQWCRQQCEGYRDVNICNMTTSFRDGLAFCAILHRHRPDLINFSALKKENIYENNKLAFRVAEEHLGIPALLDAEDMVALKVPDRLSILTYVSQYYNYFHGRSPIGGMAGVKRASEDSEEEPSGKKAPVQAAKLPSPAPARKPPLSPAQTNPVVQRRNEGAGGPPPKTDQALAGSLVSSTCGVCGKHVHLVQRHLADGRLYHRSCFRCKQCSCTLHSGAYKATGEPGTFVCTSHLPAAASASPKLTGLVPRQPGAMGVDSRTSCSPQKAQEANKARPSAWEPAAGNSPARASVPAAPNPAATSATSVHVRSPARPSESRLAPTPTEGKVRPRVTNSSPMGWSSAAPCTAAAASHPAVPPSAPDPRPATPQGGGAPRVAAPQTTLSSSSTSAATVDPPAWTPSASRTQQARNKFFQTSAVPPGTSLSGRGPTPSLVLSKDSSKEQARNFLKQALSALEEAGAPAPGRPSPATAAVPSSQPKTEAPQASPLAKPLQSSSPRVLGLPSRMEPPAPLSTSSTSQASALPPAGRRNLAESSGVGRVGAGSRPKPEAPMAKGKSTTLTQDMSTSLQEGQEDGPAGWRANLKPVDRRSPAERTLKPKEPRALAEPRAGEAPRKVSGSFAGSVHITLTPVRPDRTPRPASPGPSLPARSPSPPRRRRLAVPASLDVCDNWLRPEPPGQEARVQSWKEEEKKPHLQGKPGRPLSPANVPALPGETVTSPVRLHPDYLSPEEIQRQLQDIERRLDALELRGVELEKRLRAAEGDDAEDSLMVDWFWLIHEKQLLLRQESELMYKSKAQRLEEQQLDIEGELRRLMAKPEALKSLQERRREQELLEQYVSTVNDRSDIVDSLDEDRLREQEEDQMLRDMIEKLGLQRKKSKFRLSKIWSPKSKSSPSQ
UniProt Q9H8M7: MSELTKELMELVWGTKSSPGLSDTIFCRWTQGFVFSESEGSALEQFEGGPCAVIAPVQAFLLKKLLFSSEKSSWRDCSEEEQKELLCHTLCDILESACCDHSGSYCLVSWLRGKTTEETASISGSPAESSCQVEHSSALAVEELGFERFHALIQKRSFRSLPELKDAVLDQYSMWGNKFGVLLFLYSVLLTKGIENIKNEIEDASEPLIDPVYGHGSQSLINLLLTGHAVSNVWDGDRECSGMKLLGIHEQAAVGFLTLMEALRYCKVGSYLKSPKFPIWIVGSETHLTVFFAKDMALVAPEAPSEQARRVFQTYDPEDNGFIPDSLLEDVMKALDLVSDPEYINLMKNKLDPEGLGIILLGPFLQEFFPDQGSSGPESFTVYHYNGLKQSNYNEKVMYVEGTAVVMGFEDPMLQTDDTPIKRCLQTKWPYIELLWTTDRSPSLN
UniProt O95822: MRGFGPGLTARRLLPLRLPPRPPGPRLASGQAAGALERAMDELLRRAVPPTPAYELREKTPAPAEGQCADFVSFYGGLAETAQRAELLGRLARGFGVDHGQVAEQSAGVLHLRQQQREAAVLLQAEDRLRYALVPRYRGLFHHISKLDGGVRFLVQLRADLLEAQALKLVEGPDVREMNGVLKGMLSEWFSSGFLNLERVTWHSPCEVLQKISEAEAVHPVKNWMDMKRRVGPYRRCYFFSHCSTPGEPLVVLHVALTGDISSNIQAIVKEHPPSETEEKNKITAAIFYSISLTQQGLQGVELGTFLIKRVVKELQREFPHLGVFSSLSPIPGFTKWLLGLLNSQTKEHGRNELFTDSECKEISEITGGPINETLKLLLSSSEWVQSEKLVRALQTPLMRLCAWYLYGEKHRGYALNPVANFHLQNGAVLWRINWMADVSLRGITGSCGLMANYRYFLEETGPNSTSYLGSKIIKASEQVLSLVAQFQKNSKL

Columns and labels:
Assay in all cases: log2 fold change, soluble protein after heating vs DMSO (PISA); higher = thermal stabilisation; K562 lysate, 10 uM; active = over 0.2 and 3.5 SD of the protein, either way, in both replicates (recomputed)
[1] = compound: NCC(=O)Nc1ccc(-n2nc(C(F)(F)F)cc2-c2ccc3c(ccc4ccccc43)c2)cc1
Method in brief: (§1)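 K562 pellets were dounce-homogenised in PBS pH 7.4 containing 1 mM MgCl2, and the crude extract, at 1 mg/mL protein, was exposed to 10 μM compound for 30 min. Aliquots were heated for 3 min across 48°C-58°C, pooled, brought to 0.5% NP-40 at 4°C and spun at 21,000xg for 90 min, with the supernatant taken as soluble protein. TMTpro 16plex LC-MS/MS with equalised channel sums quantified that protein. Values are log-two fold changes in thermal stability relative to solvent controls, taken from duplicates.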

entospletinib = compound: c1cn2cc(-c3ccc4cn[nH]c4c3)nc(Nc3ccc(N4CCOCC4)cc3)c2n1 [entospletinib]
Method in brief: as §1

vorinostat = compound: O=C(CCCCCCC(=O)Nc1ccccc1)NO [vorinostat]
Method in brief: as §1

silmitasertib = compound: O=C(O)c1ccc2c(c1)nc(Nc1cccc(Cl)c1)c1ccncc12 [silmitasertib]
Method in brief: as §1

[2] = compound: O=C1NC(=O)C(c2cnc3ccccn23)=C1c1cn2c3c(cc(F)cc13)CN(C(=O)N1CCCCC1)CC2
Method in brief: as §1

Target	log2 fold change [1]	log2 fold change (entospletinib)	log2 fold change (vorinostat)	log2 fold change (silmitasertib)	log2 fold change [2]
MKKS (UniProt Q9NPJ1)	inactive: -0.036	inactive: 0.124	–	–	–
MNAT1 (UniProt P51948)	inactive: 0.029	inactive: 0.018	inactive: 0.088	inactive: -0.02	inactive: 0.024
MIER2 (UniProt Q8N344)	inactive: -0.082	inactive: 0.171	inactive: -0.109	inactive: 0.041	–
MMGT1 (UniProt Q8N4V1)	–	inactive: -0.038	inactive: 0.126	inactive: -0.003	inactive: -0.01
MPHOSPH10 (UniProt O00566)	inactive: -0.004	inactive: -0.009	inactive: 0.174	inactive: -0.126	inactive: 0.036
MIIP (UniProt Q5JXC2)	–	–	inactive: 0.258	inactive: -0.212	inactive: -0.011
MR1 (UniProt Q95460)	inactive: -0.084	inactive: 0.01	inactive: 0.092	inactive: -0.048	–
MOCS2 (UniProt O96033)	–	–	–	–	inactive: 0.033
MOCOS (UniProt Q96EN8)	inactive: 0.016	inactive: 0.019	inactive: -0.082	inactive: -0.003	inactive: -0.037
MIPOL1 (UniProt Q8TD10)	–	inactive: -0.081	inactive: -0.363	inactive: 0.177	inactive: 0.358
MMUT (UniProt P22033)	inactive: -0.004	inactive: -0.015	inactive: 0.054	inactive: 0.026	inactive: 0.002
MLKL (UniProt Q8NB16)	–	inactive: -0.103	inactive: -0.15	inactive: -0.041	inactive: 0.067
MRNIP (UniProt Q6NTE8)	–	–	inactive: -0.166	inactive: -0.042	inactive: 0.069
MOB1A (UniProt Q9H8S9)	inactive: 0.116	inactive: 0.008	–	–	–
MGAT1 (UniProt P26572)	inactive: 0.041	inactive: -0.112	inactive: 0.112	inactive: -0.089	inactive: 0.033
MRPL17 (UniProt Q9NRX2)	inactive: -0.005	inactive: 0.007	inactive: -0.113	inactive: 0.079	inactive: -0.027
MPLKIP (UniProt Q8TAP9)	inactive: 0.043	inactive: 0.05	inactive: -0.041	inactive: 0.085	inactive: -0.113
MKNK2 (UniProt Q9HBH9)	inactive: -0.176	inactive: -0.291	inactive: -0.094	inactive: 0.201	–
MICB, A0A140T979	inactive: 0.068	inactive: 0.35	inactive: 0.196	inactive: -0.121	inactive: 0.021
MLEC (UniProt Q14165)	inactive: -0.041	inactive: -0.01	inactive: 0.08	inactive: 0.034	inactive: -0.01
MIGA2 (UniProt Q7L4E1)	–	inactive: -0.078	inactive: 0.146	inactive: 0.033	–
MRPL22 (UniProt Q9NWU5)	–	–	active: -0.687	inactive: 0.001	inactive: -0.007
MOB2 isoform 3 (UniProt Q70IA6)	inactive: -0.083	inactive: 0	inactive: -0.03	inactive: 0.009	inactive: 0.012
MRPL11 (UniProt Q9Y3B7)	inactive: 0.016	inactive: 0.049	inactive: -0.165	inactive: 0.055	inactive: 0
MLXIPL (UniProt Q9NP71)	–	–	inactive: -0.066	inactive: 0.011	inactive: 0.051
MROH1 (UniProt Q8NDA8)	–	inactive: -0.153	–	–	inactive: -0.034
MICALL2 (UniProt Q8IY33)	inactive: 0.013	inactive: -0.005	inactive: -0.156	inactive: -0.006	inactive: 0
MINDY3 (UniProt Q9H8M7)	inactive: -0.032	inactive: 0.039	inactive: -0.004	inactive: -0.006	inactive: -0.012
MLYCD (UniProt O95822)	–	inactive: -0.031	inactive: -0.101	inactive: 0.147	inactive: -0.072

Retrieved one by one from the entries so far:
Target	log2 fold change [1]	log2 fold change (entospletinib)	log2 fold change (vorinostat)	log2 fold change (silmitasertib)	log2 fold change [2]
MICB, A0A140T979	inactive: 0.068	inactive: 0.35	inactive: 0.196	inactive: -0.121	inactive: 0.021
MOB1A (UniProt Q9H8S9)	inactive: 0.116	inactive: 0.008	–	–	–
